Results are given in words; binding and its absence hold for the method and conditions named. Binding seen in cells or lysates may run through a third protein. Some results given as binding are weak or reduced against the parent protein; the word gives no strength.
Molecular target: T1, carbamoylphosphate synthetase (CPS1) (mouse (endogenous in mouse liver)) (UniProt Q8C196)
T1 sequence: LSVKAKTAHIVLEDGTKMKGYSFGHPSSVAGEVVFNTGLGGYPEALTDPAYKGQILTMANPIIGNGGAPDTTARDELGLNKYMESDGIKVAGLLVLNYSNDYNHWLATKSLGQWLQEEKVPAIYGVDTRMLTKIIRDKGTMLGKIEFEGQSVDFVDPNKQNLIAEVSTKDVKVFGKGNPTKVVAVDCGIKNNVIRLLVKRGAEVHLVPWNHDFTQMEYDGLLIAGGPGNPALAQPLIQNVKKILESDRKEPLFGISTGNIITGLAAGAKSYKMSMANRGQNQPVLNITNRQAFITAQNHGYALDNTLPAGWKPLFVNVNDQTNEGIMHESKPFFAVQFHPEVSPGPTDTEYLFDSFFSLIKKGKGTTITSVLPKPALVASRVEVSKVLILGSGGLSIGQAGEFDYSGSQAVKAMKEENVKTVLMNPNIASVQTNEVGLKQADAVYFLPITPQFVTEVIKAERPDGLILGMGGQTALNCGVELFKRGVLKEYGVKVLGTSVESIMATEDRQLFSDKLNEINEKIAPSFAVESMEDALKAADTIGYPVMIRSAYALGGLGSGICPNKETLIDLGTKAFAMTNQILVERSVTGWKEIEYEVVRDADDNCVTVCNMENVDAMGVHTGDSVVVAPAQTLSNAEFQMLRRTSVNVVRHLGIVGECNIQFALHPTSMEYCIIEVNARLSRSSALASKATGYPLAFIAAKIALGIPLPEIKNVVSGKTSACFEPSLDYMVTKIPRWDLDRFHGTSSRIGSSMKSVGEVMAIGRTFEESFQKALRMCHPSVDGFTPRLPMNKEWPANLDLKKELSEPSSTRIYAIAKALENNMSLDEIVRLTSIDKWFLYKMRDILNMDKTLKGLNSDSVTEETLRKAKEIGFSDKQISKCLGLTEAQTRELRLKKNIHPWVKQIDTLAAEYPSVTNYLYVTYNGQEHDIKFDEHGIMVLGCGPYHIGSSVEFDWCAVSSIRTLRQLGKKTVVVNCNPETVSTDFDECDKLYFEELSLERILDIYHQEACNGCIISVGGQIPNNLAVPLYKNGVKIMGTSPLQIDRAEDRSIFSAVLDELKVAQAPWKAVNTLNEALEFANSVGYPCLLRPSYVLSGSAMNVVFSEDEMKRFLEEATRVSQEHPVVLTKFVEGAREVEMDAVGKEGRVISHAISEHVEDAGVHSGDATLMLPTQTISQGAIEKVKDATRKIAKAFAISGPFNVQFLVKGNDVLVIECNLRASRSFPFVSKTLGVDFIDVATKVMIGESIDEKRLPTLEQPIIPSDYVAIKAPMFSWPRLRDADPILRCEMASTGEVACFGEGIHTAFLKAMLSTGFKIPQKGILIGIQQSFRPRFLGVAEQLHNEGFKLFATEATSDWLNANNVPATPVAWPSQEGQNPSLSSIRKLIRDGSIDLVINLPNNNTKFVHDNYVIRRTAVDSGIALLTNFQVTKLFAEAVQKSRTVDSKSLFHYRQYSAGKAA
Assay: co-IP; reverse Co-IP with a CPS1 antibody from liver lysates of female WT and FMO3-/- mice; blot for FMO3; no-antibody control

binding: binds weakly
B1: flavin-containing monooxygenase 3 (FMO3) (protein, UniProt P97501 1-534)
chain: MKKKVAIIGAGVSGLAAIRSCLEEGLEPTCFERSDDVGGLWKFSDHIEEGRASIYQSVFTNSSKEMMCFPDFPYPDDFPNFMHHSKLQEYITSFAKEKNLLKYIQFETPVTSINKCPNFSTTGKWEVTTEKHGKKETAVFDATMICSGHHIFPHVPKDSFPGLNRFKGKCFHSRDYKEPGIWKGKRVLVIGLGNSGCDIAAELSHVAQKVTISSRSGSWVMSRVWDDGYPWDMVVLTRFQTFLKNNLPTAISDWWYTRQMNARFKHENYGLVPLNRTLRKEPVFNDELPARILCGMVTIKPNVKEFTETSAVFEDGTMFEAIDCVIFATGYGYAYPFLDDSIIKSRNNEVTLYKGVFPPQLEKPTMAVIGLVQSLGATIPITDLQARWAAQVIKGTCTLPSVNDMMDDIDEKMGEKFKWYGNSTTIQTDYIVYMDELASFIGAKPNLLWLFLKDPRLAVEVFFGPCSPYQFRLVGPGKWSGARNAILTQWDRSLKPMKTRVVSKVQKSCSHFYSRLLRLLAVPVLLIALFLVLI

Source: paper PMC8877285
